Experimental data published in the supplement of paper PMC10849652.
This is one part of the list.

By UniProt entry, the sequences of proteins in these tests, tags left out. Where a name states a change or a piece, a line headed by the entry shows the natural chain unless it says otherwise.
UniProt Q8NI08: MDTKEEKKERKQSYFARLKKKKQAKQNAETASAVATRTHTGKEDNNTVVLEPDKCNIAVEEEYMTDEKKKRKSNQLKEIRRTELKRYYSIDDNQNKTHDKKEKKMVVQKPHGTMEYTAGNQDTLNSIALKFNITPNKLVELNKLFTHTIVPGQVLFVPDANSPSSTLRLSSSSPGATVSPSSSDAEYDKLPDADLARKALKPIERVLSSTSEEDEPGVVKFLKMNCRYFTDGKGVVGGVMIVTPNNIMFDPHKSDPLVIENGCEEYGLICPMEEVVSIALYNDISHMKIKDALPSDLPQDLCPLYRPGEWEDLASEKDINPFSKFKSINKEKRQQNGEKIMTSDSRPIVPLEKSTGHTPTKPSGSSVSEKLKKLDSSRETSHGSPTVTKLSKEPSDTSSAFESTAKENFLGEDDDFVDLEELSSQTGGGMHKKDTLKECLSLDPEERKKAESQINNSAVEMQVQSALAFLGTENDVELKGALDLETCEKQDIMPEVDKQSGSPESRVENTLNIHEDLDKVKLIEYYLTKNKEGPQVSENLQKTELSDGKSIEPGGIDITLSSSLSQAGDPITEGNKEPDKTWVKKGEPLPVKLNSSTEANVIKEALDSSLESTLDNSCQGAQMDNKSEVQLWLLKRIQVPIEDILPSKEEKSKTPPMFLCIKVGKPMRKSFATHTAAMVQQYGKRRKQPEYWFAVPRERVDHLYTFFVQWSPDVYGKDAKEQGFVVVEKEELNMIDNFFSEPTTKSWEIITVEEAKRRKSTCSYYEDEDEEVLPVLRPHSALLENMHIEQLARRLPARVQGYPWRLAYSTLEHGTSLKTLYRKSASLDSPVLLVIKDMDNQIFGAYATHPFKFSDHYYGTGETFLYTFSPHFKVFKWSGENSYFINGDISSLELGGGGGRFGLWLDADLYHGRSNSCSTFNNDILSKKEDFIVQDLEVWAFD
UniProt Q13506: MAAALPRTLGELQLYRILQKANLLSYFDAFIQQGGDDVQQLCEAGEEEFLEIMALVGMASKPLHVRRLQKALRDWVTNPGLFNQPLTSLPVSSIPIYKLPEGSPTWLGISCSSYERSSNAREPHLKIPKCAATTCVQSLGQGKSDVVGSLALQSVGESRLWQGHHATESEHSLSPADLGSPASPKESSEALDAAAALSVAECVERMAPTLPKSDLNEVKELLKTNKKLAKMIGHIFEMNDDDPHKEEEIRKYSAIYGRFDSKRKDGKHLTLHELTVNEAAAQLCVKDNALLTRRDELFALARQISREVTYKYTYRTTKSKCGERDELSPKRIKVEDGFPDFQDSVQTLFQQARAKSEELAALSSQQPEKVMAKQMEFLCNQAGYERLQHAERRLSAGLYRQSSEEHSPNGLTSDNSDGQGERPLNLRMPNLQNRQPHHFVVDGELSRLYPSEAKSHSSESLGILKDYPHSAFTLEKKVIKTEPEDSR
UniProt Q9BRK3: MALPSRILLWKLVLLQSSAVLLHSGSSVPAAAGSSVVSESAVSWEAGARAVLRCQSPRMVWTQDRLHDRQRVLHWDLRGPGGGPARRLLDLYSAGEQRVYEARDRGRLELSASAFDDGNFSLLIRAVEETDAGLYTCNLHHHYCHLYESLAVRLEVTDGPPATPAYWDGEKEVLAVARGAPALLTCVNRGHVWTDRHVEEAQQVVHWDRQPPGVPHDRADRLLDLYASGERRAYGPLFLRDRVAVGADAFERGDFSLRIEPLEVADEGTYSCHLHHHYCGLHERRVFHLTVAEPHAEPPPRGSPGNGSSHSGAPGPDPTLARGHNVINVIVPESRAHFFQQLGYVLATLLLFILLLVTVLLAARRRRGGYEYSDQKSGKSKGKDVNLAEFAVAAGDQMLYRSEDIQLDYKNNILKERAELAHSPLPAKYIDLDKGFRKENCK
UniProt Q93015: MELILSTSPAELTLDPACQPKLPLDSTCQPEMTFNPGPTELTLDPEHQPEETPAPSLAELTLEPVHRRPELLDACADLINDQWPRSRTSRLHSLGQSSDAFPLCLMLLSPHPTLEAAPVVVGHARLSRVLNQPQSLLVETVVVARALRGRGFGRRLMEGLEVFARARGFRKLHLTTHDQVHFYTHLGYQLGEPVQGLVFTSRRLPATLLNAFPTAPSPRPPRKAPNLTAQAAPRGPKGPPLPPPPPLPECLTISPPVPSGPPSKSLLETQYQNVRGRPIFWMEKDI
UniProt Q96AH0: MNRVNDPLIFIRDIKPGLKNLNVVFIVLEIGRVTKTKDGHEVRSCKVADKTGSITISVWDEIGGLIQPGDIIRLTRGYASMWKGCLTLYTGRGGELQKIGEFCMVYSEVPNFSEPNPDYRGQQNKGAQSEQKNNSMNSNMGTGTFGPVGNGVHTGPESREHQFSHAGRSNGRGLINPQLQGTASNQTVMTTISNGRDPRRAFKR
UniProt Q96BF6: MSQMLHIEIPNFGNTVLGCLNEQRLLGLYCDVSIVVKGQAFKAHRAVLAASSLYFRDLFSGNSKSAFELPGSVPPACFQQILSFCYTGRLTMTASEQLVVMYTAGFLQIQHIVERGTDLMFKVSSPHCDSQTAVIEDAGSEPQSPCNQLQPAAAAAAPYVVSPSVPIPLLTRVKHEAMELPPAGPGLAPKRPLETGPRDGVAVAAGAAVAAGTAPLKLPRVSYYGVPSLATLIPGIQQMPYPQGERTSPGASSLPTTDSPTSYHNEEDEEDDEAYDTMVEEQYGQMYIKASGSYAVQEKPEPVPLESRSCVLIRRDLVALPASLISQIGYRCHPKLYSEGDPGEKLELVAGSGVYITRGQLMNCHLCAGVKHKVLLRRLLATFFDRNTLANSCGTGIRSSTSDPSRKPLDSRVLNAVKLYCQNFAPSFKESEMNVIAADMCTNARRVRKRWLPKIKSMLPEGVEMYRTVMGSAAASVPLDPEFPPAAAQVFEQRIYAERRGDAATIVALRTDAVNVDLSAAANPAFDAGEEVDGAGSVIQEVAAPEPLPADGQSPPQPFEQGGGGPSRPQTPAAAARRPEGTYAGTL
UniProt Q9UL68: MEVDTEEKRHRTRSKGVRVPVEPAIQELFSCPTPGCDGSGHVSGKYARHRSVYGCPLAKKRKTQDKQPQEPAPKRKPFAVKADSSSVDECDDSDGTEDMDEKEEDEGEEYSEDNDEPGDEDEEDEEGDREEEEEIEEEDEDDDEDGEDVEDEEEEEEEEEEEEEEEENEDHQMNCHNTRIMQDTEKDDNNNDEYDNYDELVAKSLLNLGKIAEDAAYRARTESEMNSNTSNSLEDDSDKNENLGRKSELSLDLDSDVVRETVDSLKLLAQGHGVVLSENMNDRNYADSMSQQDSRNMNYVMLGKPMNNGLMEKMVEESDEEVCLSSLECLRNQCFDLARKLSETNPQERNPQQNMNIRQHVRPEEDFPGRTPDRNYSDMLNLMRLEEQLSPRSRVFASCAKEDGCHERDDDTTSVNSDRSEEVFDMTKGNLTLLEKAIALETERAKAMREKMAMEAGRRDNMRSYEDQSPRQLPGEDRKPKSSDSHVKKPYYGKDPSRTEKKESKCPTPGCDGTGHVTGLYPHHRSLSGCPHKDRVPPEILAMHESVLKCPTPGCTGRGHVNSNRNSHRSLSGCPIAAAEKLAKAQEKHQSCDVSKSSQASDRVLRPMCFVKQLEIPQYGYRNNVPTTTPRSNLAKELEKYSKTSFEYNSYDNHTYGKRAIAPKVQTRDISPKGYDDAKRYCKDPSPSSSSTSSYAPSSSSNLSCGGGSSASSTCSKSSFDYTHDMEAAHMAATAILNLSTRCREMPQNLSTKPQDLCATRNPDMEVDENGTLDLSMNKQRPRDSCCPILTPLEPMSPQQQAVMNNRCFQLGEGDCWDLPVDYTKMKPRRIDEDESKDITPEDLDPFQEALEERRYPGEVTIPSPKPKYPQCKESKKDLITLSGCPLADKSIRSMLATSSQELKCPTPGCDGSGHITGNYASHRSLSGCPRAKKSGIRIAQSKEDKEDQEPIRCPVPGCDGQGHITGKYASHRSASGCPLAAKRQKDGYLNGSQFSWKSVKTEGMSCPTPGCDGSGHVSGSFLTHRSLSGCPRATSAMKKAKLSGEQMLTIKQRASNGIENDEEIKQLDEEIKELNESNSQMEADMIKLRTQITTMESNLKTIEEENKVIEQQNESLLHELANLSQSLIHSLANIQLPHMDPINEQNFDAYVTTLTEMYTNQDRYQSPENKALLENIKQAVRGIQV
UniProt Q9UKX2, whole entry, looked up: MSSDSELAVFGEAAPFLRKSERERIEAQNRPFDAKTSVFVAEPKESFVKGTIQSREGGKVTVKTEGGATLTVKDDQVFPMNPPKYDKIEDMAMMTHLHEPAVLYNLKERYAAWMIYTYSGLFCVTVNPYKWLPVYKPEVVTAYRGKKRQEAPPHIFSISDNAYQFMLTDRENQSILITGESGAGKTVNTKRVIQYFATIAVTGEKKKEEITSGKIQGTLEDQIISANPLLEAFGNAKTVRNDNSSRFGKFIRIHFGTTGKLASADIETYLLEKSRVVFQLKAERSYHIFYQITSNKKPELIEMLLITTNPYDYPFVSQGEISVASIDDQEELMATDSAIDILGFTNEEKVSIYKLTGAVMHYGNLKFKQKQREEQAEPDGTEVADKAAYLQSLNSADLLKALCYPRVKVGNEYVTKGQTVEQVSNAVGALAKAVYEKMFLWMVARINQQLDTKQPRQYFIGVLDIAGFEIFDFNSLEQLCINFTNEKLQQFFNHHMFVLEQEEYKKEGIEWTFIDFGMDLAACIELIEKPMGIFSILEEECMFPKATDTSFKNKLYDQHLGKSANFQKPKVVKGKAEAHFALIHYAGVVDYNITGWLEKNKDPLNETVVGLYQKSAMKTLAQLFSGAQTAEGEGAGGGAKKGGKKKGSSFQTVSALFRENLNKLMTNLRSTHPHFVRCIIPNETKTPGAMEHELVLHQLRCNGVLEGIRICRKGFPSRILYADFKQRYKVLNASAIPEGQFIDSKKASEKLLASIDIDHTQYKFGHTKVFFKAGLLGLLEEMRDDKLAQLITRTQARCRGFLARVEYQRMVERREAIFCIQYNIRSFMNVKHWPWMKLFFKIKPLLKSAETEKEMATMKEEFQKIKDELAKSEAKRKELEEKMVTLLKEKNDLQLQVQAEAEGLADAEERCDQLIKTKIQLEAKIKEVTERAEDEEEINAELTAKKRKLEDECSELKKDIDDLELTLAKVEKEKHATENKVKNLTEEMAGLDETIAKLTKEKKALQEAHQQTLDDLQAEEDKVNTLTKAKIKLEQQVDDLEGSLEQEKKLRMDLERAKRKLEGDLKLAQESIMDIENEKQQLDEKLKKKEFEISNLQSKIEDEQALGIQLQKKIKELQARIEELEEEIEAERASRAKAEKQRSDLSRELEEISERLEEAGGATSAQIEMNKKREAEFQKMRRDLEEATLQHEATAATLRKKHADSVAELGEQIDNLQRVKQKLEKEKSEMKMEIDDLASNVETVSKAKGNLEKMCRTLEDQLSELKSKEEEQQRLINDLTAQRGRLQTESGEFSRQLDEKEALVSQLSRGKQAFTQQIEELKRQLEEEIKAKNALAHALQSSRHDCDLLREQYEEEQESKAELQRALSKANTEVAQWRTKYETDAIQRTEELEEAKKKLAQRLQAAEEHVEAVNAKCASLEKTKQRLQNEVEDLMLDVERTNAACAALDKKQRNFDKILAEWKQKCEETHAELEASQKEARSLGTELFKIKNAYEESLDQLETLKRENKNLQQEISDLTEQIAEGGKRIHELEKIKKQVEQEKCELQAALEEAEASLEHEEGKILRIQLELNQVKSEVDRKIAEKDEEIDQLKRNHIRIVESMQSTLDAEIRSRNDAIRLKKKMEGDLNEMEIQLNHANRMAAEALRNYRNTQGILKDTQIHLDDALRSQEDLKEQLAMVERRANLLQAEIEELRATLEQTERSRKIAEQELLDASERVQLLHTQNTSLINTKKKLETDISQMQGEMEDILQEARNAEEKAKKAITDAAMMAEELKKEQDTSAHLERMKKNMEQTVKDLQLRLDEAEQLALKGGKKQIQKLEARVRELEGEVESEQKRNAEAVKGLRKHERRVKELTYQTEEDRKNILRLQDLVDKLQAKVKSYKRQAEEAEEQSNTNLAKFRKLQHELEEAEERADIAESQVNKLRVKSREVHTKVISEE
UniProt Q6ZVX7: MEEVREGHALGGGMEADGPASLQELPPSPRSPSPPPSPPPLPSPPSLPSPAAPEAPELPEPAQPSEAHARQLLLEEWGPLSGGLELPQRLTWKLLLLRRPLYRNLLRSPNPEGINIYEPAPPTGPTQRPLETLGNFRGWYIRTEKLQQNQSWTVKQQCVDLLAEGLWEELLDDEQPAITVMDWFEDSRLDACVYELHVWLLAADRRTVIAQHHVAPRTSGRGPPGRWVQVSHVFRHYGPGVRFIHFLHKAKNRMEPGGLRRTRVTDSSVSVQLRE
UniProt P19105: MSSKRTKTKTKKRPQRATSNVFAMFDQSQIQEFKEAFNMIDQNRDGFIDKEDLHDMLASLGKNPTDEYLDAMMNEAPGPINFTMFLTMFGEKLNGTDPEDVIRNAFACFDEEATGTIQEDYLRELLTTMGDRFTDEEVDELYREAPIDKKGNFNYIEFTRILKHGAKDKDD

Assays:
Assay in all cases: log2 fold change, soluble protein after heating vs DMSO (PISA); higher = thermal stabilisation; K562 lysate, 10 uM; active = over 0.2 and 3.5 SD of the protein, either way, in both replicates (recomputed)
[1] = compound: CCN(CCCOc1ccc2c(Nc3cc(CC(=O)Nc4cccc(F)c4)[nH]n3)ncnc2c1)CCOP(=O)(O)O [barasertib]
How it was run: (§1)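 Soluble protein was defined as the supernatant remaining after 21,000xg for 90 min, following pooling of heated aliquots and adjustment to 0.5% NP-40 at 4°C. Before that, crude K562 extract at 1 mg/mL protein in PBS pH 7.4 with 1 mM MgCl2 was treated with 10 μM compound for 30 min and heated for 3 min across 48°C-58°C. Quantification used TMTpro 16plex LC-MS/MS with channel sums equalised, and values are log-two fold changes in thermal stability relative to solvent controls from duplicates.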

[2] = compound: COc1cc(Nc2ncc3c(n2)-c2ccc(Cl)cc2C(c2c(F)cccc2OC)=NC3)ccc1C(=O)O [alisertib]
How it was run: as §1

[3] = compound: COc1cc2ncnc(Nc3ccc(F)c(Cl)c3)c2cc1OCCCN1CCOCC1 [gefitinib]
How it was run: as §1

[4] = compound: CCCS(=O)(=O)Nc1ccc(F)c(C(=O)c2c[nH]c3ncc(-c4ccc(Cl)cc4)cc23)c1F [vemurafenib]
How it was run: as §1

[5] = compound: CCn1c(C(=O)N(C2CC2)C2CC2)cc2c3c(ncn3C)c(Nc3cc(C)n(C)n3)nc21
How it was run: as §1

[6] = compound: CCn1cc(-c2ccnc3[nH]c(-c4cccc(CN(C)C)c4)cc23)c(-c2ccc(NC(=O)N(C)C)cc2)n1
How it was run: as §1

[7] = compound: CN1CCC(CNc2ccc3ncc(-c4cccc(OC(F)(F)F)c4)n3n2)CC1
How it was run: as §1

[8] = compound: CN1CCN(CCOc2cc(OC3CCOCC3)c3c(Nc4c(Cl)ccc5c4OCO5)ncnc3c2)CC1 [saracatinib]
How it was run: as §1

[9] = compound: CN1CC[C@H](c2c(O)cc(O)c3c(=O)cc(-c4ccccc4Cl)oc23)[C@H](O)C1 [alvocidib]
How it was run: as §1

[10] = compound: CN1CCc2c(c3ccccc3n2Cc2ccc(C(=O)NO)cc2)C1 [Tubastatin A]
How it was run: as §1

[11] = compound: CNC(=O)C1=CC=CC=C1NC2=NC(=NC=C2Cl)NC3=C(C=C(C=C3)N4CCOCC4)OC
How it was run: as §1

[12] = compound: CNC(=O)c1ccc(Nc2ncc(C(F)(F)F)c(NCc3nccnc3N(C)S(C)(=O)=O)n2)cc1 [defactinib]
How it was run: as §1

[13] = compound: CNc1nc(-c2ccc3c(N)n[nH]c3c2)cc(N2C[C@@H](C(=O)NC3CCCCC3)CC[C@H]2C)n1
How it was run: as §1

[14] = compound: CCCS(=O)(=O)Nc1ccc(F)c(C(=O)c2c[nH]c3ncc(Cl)cc23)c1F
How it was run: as §1

[15] = compound: CC[C@@H]1C(=O)N(C)c2cnc(Nc3ccc(C(=O)N[C@H]4CC[C@H](N5CCN(CC6CC6)CC5)CC4)cc3OC)nc2N1C(C)C [volasertib]
How it was run: as §1

[16] = compound: COc1cc2nc(-c3cc(F)ccc3O)nc(N[C@@H]3CNC[C@H]3C(C)(C)O)c2cc1OC
How it was run: as §1

[17] = compound: CN1CCN(c2nc(C3=C(c4c[nH]c5ccccc45)C(=O)NC3=O)c3ccccc3n2)CC1 [sotrastaurin]
How it was run: as §1

[18] = compound: CC[C@@H]1C(=O)N(C)c2cnc(Nc3ccc(C(=O)NC4CCN(C)CC4)cc3OC)nc2N1C1CCCC1
How it was run: as §1

[19] = compound: COC(=O)N[C@@H](C)CNc1nccc(-c2cn(C(C)C)nc2-c2cc(Cl)cc(NS(C)(=O)=O)c2F)n1 [encorafenib]
How it was run: as §1

[20] = compound: COC(=O)[C@H](CCSC)NC(=O)C1=C(C=C(C=C1)NC[C@H](CS)N)C2=CC=CC=C2
How it was run: as §1

Measured: log2 fold change

NCL (UniProt H7BY16)
inactive: [1] -0.027 | [2] -0.048 | [3] -0.013

MYH3 (UniProt P11055)
inactive: [4] -0.045 | [5] -0.044 | [6] 0.128 | [7] -0.346 | [8] -0.125 | [9] 0.045 | [10] -0.017 | [11] 0.152 | [12] -0.111 | [13] -0.325

MYOF (UniProt Q9NZM1)
inactive: [8] 0.156 | [13] 0

NCOA7 isoform 2 (UniProt Q8NI08)
inactive: [14] 0.16 | [15] -0.01 | [8] -0.016 | [13] 0.121 | [16] 0.157

NAB1 (UniProt Q13506)
inactive: [1] -0.035 | [5] 0.012 | [6] -0.043 | [7] -0.02 | [8] 0.081 | [17] -0.028 | [9] 0.067 | [10] -0.019 | [11] -0.094 | [13] -0.07 | [2] -0.055 | [3] 0.05

MXRA8 isoform 2 (UniProt Q9BRK3)
inactive: [1] 0.019

NCKAP5L (UniProt Q9HCH0)
inactive: [14] 0.04 | [18] 0.119 | [15] -0.062 | [5] -0.012 | [6] 0.046 | [7] 0.031 | [8] -0.043 | [17] -0.016 | [9] -0.044 | [10] 0.003 | [11] 0.041 | [13] 0 | [19] 0.066 | [20] 0.036 | [2] -0.056 | [16] -0.057 | [3] 0.056

MYH7 (UniProt P12883)
inactive: [1] 0.391

NAA80 isoform 2 (UniProt Q93015)
inactive: [5] -0.084 | [10] -0.111 | [11] -0.066 | [2] 0.061 | [3] -0.122

MYH6 (UniProt P13533)
inactive: [14] -0.081 | [1] 0.006 | [18] 0.215 | [15] 0.084 | [5] -0.137 | [17] -0.017 | [10] 0.142 | [11] -0.06 | [19] -0.048 | [20] 0.082 | [16] 0.206

NABP1 (UniProt Q96AH0)
inactive: [4] -0.024 | [18] -0.132 | [12] 0.121 | [19] -0.154 | [20] 0.096 | [2] 0.069 | [3] 0.031

NASP isoform 2 (UniProt P49321)
inactive: [14] -0.016 | [1] 0.01 | [15] 0.017 | [6] 0.889 | [7] -0.736 | [9] 0.36 | [16] -0.029

NCLN isoform 2 (UniProt Q969V3)
inactive: [4] 0.018 | [18] 0.097 | [5] -0.179 | [17] 0.05 | [10] -0.219 | [12] 0.124 | [19] -0.165 | [20] -0.08

Two records picked at random from the list so far:
NASP isoform 2 (UniProt P49321)
inactive: [14] -0.016 | [1] 0.01 | [15] 0.017 | [6] 0.889 | [7] -0.736 | [9] 0.36 | [16] -0.029

NCLN isoform 2 (UniProt Q969V3)
inactive: [4] 0.018 | [18] 0.097 | [5] -0.179 | [17] 0.05 | [10] -0.219 | [12] 0.124 | [19] -0.165 | [20] -0.08

Going on with the list:

NAP1L4 (UniProt C9JZI7)
inactive: [14] -0.071 | [15] -0.162 | [8] 0.077 | [11] 0.088 | [13] 0.019 | [16] 0.038

NACC2 (UniProt Q96BF6)
inactive: [4] 0.053 | [18] -0.391 | [5] 0.039 | [6] -0.034 | [7] 0.096 | [8] -0.176 | [17] 0.068 | [9] 0.022 | [10] 0.053 | [11] -0.007 | [12] 0.088 | [13] -0.287 | [19] -0.046 | [20] -0.015 | [2] 0.029 | [3] 0.112

NARS1 (UniProt K7ENF0)
inactive: [17] 0.107

NACA2 (UniProt Q9H009)
inactive: [5] 0.114 | [8] -0.078 | [10] -0.153 | [13] -0.081

MYNN (UniProt Q9NPC7)
inactive: [4] 0.078 | [5] -0.096 | [8] 0.118 | [10] 0.055 | [11] 0.113 | [12] -0.098 | [13] 0.001

NAP1L1 (UniProt H0YHC3)
inactive: [14] -0.194 | [15] -0.177 | [16] -0.032

MYT1L (UniProt Q9UL68)
inactive: [14] -0.031 | [15] 0.043 | [5] -0.045 | [10] 0.112 | [16] -0.007

MYH2 (UniProt Q9UKX2)
inactive: [1] 0.317 | [8] 0.167 | [13] -0.078

NCCRP1 (UniProt Q6ZVX7)
inactive: [14] -0.247 | [1] 0.28 | [15] 0.134 | [5] 0.136 | [6] 0.05 | [7] -0.144 | [8] -0.018 | [17] 0.115 | [9] 0.14 | [10] -0.083 | [13] -0.515 | [16] -0.102

MYO1G (UniProt B0I1T2)
inactive: [14] -0.072 | [1] 0.216 | [18] -0.09 | [15] 0.026 | [6] 0.33 | [7] -0.158 | [8] -0.057 | [17] 0.017 | [9] 0.122 | [11] -0.079 | [13] -0.021 | [19] -0.084 | [20] 0.163 | [2] 0.167 | [16] -0.094 | [3] -0.035

NAV2 (UniProt Q8IVL1)
inactive: [14] -0.139 | [1] 0.012 | [18] -0.024 | [15] 0.119 | [5] 0.078 | [6] 0.337 | [7] 0.427 | [9] -0.446 | [10] 0.131 | [19] -0.325 | [20] -0.081 | [2] -0.126 | [16] -0.171 | [3] 0.095

NAMPT (UniProt C9JF35)
inactive: [14] 0.055 | [15] -0.013 | [6] -0.196 | [7] 0.215 | [9] 0.012 | [11] 0.07 | [16] -0.083

MUC5B (UniProt Q9HC84)
inactive: [14] 0.085 | [18] 0.027 | [15] -0.008 | [6] 0.685 | [7] -0.324 | [8] 0.004 | [17] -0.055 | [9] -0.128 | [11] -0.071 | [13] -0.009 | [19] -0.238 | [20] 0.587 | [2] 0.074 | [16] -0.061 | [3] 0.009

NACA (UniProt F8VNW4)
inactive: [14] -0.168 | [15] 0.018 | [16] -0.014

NCF4 (UniProt Q15080)
inactive: [1] -0.23 | [18] -0.009 | [6] -0.423 | [7] 0.201 | [17] -0.045 | [9] -0.089 | [19] -0.024 | [20] 0.08

NAP1L4 (UniProt C9J6D1)
inactive: [14] -0.054 | [15] -0.229 | [16] 0.078

MYL12A (UniProt P19105)
inactive: [6] 0.185 | [7] -0.394 | [9] -0.098 | [11] 0.068

MYC isoform 2 (UniProt P01106)
inactive: [5] 0.16 | [6] -0.106 | [7] 0.072 | [9] 0.036 | [10] -0.075 | [2] 0.008 | [3] -0.094

N4BP3 (UniProt O15049)
inactive: [14] -0.009 | [1] 0.315 | [15] -0.001 | [11] -0.141 | [2] 0.05 | [16] 0.056 | [3] -0.044
